Test results published in PMC11473679.
Results are given in words; binding and its absence hold for the method and conditions named. Binding seen in cells or lysates may run through a third protein. These calls come from enrichment with a bait or labelling near it, and not all partners need be listed. Values belong to the molecule of their own block, whether it stands above or below them.

Chains of the proteins cited; added tags and fusions are not shown. Residues count along the entry.
UniProt Q8BMS1, residues 37-763: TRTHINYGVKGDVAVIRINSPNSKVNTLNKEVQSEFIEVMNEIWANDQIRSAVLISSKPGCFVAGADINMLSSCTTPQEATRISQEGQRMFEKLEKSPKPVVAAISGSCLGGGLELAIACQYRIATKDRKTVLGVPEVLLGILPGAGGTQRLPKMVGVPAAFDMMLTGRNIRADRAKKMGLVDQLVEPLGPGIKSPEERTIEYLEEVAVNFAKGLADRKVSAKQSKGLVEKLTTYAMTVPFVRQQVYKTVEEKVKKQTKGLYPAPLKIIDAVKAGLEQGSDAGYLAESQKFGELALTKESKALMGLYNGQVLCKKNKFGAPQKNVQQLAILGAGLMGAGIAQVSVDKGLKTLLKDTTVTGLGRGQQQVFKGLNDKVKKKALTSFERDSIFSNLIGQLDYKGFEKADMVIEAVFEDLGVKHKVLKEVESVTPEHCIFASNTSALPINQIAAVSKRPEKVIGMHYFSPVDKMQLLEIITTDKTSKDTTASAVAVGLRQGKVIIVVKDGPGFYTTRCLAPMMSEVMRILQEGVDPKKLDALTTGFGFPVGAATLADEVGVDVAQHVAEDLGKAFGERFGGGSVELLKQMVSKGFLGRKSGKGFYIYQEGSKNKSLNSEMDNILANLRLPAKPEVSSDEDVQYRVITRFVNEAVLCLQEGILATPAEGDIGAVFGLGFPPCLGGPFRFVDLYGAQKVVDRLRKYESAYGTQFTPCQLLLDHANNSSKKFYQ

Molecular target: T1, Melusin (human, transgenic in the heart of Mel over mice) (human) (UniProt Q9UKP3)
T1 sequence: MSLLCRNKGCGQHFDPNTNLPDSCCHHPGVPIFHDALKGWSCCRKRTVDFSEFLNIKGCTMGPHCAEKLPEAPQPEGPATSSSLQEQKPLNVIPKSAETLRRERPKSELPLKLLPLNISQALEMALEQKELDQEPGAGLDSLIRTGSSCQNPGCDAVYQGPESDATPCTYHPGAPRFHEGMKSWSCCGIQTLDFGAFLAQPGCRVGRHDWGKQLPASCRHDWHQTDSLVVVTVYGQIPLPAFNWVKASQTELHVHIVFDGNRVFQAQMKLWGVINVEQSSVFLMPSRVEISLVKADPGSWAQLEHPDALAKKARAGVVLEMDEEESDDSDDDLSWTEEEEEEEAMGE
Test: affinity purification with mass spectrometry; Melusin immunoprecipitation from cardiac total extracts of Mel over mice, Mel null mice as controls; Coomassie-stained bands cut out and identified by mass spectrometry

binding: binds
Molecule: α subunit of the mitochondrial trifunctional protein (mouse) (from UniProt Q8BMS1 37-763)

binding: binds
B1: β subunit of the mitochondrial trifunctional protein (mouse) (protein, UniProt Q99JY0 35-475)
chain: SAPAVQTKSKKTLAKPNMKNIVVVEGVRIPFLLSGTSYKDLMPHDLARAALSGLLHRTNIPKDVVDYIIFGTVIQEVKTSNVAREAALGAGFSDKTPAHTVTMACISSNQAMTTAVGLIASGQCDVVVAGGVELMSDVPIRHSRNMRKMMLDLNKAKTLGQRLSLLSKFRLNFLSPELPAVAEFSTNETMGHSADRLAAAFAVSRMEQDEYALRSHSLAKKAQDEGHLSDIVPFKVPGKDTVTKDNGIRPSSLEQMAKLKPAFIKPYGTVTAANSSFLTDGASAMLIMSEDRALAMGYKPKAYLRDFIYVSQDPKDQLLLGPTYATPKVLEKAGLTMNDIDAFEFHEAFSGQILANFKAMDSDWFAQNYMGRKTKVGSPPLEKFNIWGGSLSLGHPFGATGCRLVMAAANRLRKDGGQYALVAACAAGGQGHAMIVEAYPK
